From PubChem BioAssay record AID1224904 (Broad Institute, 2016).

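Selective DUX4 reporter inhibition in doxycycline-induced 293T-iDUX4 cells, scored as Gaussia percent activity minus Italica percent activity, after a 24-hour treatment. The test concentration is not given here. Percent difference between the Gaussia and Italica channels; more negative values mean more selective suppression of the DUX4 reporter, and higher values mean less activity.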

Values are in %. The controls that fix the scale are not given here. Common to all entries: measured here: selective DUX4 reporter inhibition. Part of the compounds only, not a random draw; the main read-out is not listed here.

- CCN1[C@H](C(=O)Nc2nccs2)[C@@H](CO)[C@@H]2Cn3c(ccc(/C=C/c4ccccc4)c3=O)[C@@H]21 : Gaussia minus Italica difference -16.78%
- Cc1cccc(S(=O)(=O)N2CC[C@H]3[C@@H](CO)N(C)c4ccc(-c5cccc(C#N)c5)cc4[C@H]32)c1 : Gaussia minus Italica difference -0.2757%
- C[C@H](O)C#Cc1ccc([C@H]2[C@@H](CO)N3CCCCN(C(=O)c4ccc5c(c4)OCO5)C[C@H]23)cc1 : Gaussia minus Italica difference -19.71%
- OC[C@H]1[C@H](c2ccc(C#Cc3ccccc3)cc2)[C@H]2CN(Cc3cncnc3)CCCCN21 : Gaussia minus Italica difference 3.007%
- COc1ccc(NC(=O)N2CC(=O)N3[C@H](C2)[C@H](c2ccc(-c4ccc(C)cc4)cc2)[C@@H]3CO)cc1 : Gaussia minus Italica difference -6.096%
- O=C(Nc1cc(F)ccc1F)N1CCCCN2[C@H](CO)[C@H](c3ccc(-c4cccnc4)cc3)[C@H]2C1 : Gaussia minus Italica difference -14.83%
- N#C[C@@H]1[C@H](c2ccccc2C2=CCCCC2)[C@H](CO)N1C(=O)Cc1ccncc1 : Gaussia minus Italica difference -16.16%
- O=C(c1ccncc1)N1CC[C@@H]2[C@H](CO)Nc3ccc(Br)cc3[C@@H]21 : Gaussia minus Italica difference -3.502%
- O=C(C1CC1)N1CC[C@@H]2[C@H]1c1cc(C#Cc3ccccc3F)ccc1N[C@@H]2CO : Gaussia minus Italica difference -22.35%
- CCC(=O)N1CC2(CCN(Cc3ccc(F)cc3)CC2)c2c(n(C)c3cc(OC)ccc23)[C@H]1CO : Gaussia minus Italica difference 26.05%
- O=C(C[C@H]1CC[C@@H]2[C@H](COC[C@H](O)CN2S(=O)(=O)c2ccc(F)cc2)O1)NCc1ccc(Cl)c(Cl)c1 : Gaussia minus Italica difference -8.15%
- N#Cc1ccc(-c2ccc([C@@H]3[C@H]4CN(C(=O)C5CCCCC5)CC(=O)N4[C@H]3CO)cc2)cc1 : Gaussia minus Italica difference -12.1%
- COc1cccc(-c2ccc(C3[C@@H]4CN(C(=O)c5ccc(F)cc5)C[C@H]3N4)cc2)c1 (stereo not given in full) : Gaussia minus Italica difference -6.155%
- COc1ccc2c3c(n(C)c2c1)[C@H](CO)N(C(C)=O)CC31CCN(Cc2ccc(Cl)cc2)CC1 : Gaussia minus Italica difference 11.5%
- COc1ccc2c3c(n(C)c2c1)[C@H](CO)N(C(=O)c1cccc(F)c1)CC31CN(C(=O)c2cccc(F)c2)C1 : Gaussia minus Italica difference -14.45%
- COc1ccccc1S(=O)(=O)N1C[C@@H]2N[C@H](C1)C2c1ccc(-c2cccc(C)c2)cc1 (stereo not given in full) : Gaussia minus Italica difference -14.12%
- COc1ccc2c3c([nH]c2c1)[C@H](CO)N(Cc1ccccc1OC)CC31CCN(C)CC1 : Gaussia minus Italica difference -12.66%
- O=C(C[C@H]1CC[C@@H]2[C@H](COC[C@@H](O)CN2CCC(F)(F)F)O1)NCc1ccc(Oc2ccccc2)cc1 : Gaussia minus Italica difference -15.04%
- CCC(=O)N1CC2(C1)[C@@H](c1ccc(-c3cccc(F)c3)cc1)[C@@H](CO)N2CC1CC1 : Gaussia minus Italica difference 5.173%
- Cc1cccc(-c2ccc(C3[C@@H]4CN(C(=O)C5CCCCC5)C[C@H]3N4)cc2)c1 (stereo not given in full) : Gaussia minus Italica difference 11.73%
- CO[C@H]1CN(C)C(=O)c2cc(NC(=O)Nc3cccc(F)c3)ccc2OC[C@H](C)N(C(=O)C2CC2)C[C@H]1C : Gaussia minus Italica difference -15.11%
- C[C@@H]1CN([C@@H](C)CO)C(=O)CCCn2nncc2CO[C@@H]1CN(C)C(=O)Oc1cccc2ccccc12 : Gaussia minus Italica difference -9.776%
- COc1ccc2c3c([nH]c2c1)[C@H](CO)N(CC1CC1)CC31CN(S(=O)(=O)c2cccc(F)c2)C1 : Gaussia minus Italica difference -11.29%
- O=C(CC1CC1)N1CC(=O)N2[C@H](C1)[C@H](c1ccc(C#Cc3cccc(F)c3)cc1)[C@@H]2CO : Gaussia minus Italica difference -13.85%
- CCS(=O)(=O)N1CC2(C1)[C@@H](c1ccccc1)[C@@H](CO)N2CC1CCCC1 : Gaussia minus Italica difference -12.3%
- N#Cc1ccc(-c2ccc([C@@H]3[C@@H](CO)N4C(=O)CN(C(=O)Cc5ccccc5)C[C@@H]34)cc2)cc1 : Gaussia minus Italica difference -5.024%
- COc1cccc(S(=O)(=O)N2CC[C@@H]3[C@@H](CO)Nc4ccc(C#Cc5cccnc5)cc4[C@@H]32)c1 : Gaussia minus Italica difference -19.53%
- OC[C@@H]1[C@@H](c2ccccc2)C2(CN(Cc3ccc4c(c3)OCO4)C2)N1Cc1ccccc1 : Gaussia minus Italica difference -8.607%
- C[C@H]1CN([C@@H](C)CO)C(=O)c2ccccc2-c2ccccc2CO[C@H]1CN(C)S(=O)(=O)c1ccc([N+](=O)[O-])cc1 : Gaussia minus Italica difference 17.98%
- CO[C@@H]1CN(C)C(=O)c2ccc(NC(=O)NC3CCCCC3)cc2OC[C@@H](C)N(CCc2ccccc2)C[C@H]1C : Gaussia minus Italica difference -20.02%
- COc1cccc(-c2ccc3c(c2)[C@@H]2[C@@H](CCN2Cc2ccccc2OC)[C@@H](CO)N3)c1 : Gaussia minus Italica difference -9.991%
- O=C(C[C@H]1CC[C@@H]2[C@H](COC[C@@H](O)CN2Cc2cccc(C(F)(F)F)c2)O1)NCc1ccc(F)cc1 : Gaussia minus Italica difference 4.256%
- N#Cc1cccc(-c2ccc3c(c2)[C@H]2[C@H](CCN2S(=O)(=O)c2ccc(F)cc2)[C@@H](CO)N3)c1 : Gaussia minus Italica difference -10.34%
- COc1ccc2c3c(n(C)c2c1)[C@H](CO)N(Cc1ccccc1)CC31CCN(S(=O)(=O)c2ccc(C)cc2)CC1 : Gaussia minus Italica difference -1.204%
- CN1c2ccc(-c3ccc(C#N)cc3)cc2[C@@H]2[C@@H](CCN2C(=O)NC2CCCCC2)[C@H]1CO : Gaussia minus Italica difference 14.22%
- CCCC(=O)Nc1ccc2c(c1)OC[C@@H](C)N(CCc1ccccc1)C[C@H](C)[C@@H](OC)CN(C)C2=O : Gaussia minus Italica difference -12.67%
- O=C(C1CCOCC1)N1C[C@@H]2N[C@H](C1)C2c1ccc(/C=C/c2ccccc2)cc1 (stereo not given in full) : Gaussia minus Italica difference -18.28%
- C[C@H]1CN([C@@H](C)CO)C(=O)c2c(c3ccccc3n2C)-c2ccccc2CO[C@@H]1CN(C)S(=O)(=O)c1cccs1 : Gaussia minus Italica difference -8.404%

The first 4 entries again:

CCN1[C@H](C(=O)Nc2nccs2)[C@@H](CO)[C@@H]2Cn3c(ccc(/C=C/c4ccccc4)c3=O)[C@@H]21 gave Gaussia minus Italica difference -16.78%.
Cc1cccc(S(=O)(=O)N2CC[C@H]3[C@@H](CO)N(C)c4ccc(-c5cccc(C#N)c5)cc4[C@H]32)c1 gave Gaussia minus Italica difference -0.2757%.
C[C@H](O)C#Cc1ccc([C@H]2[C@@H](CO)N3CCCCN(C(=O)c4ccc5c(c4)OCO5)C[C@H]23)cc1 gave Gaussia minus Italica difference -19.71%.
OC[C@H]1[C@H](c2ccc(C#Cc3ccccc3)cc2)[C@H]2CN(Cc3cncnc3)CCCCN21 gave Gaussia minus Italica difference 3.007%.